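A cell-based FRET test of anthrax lethal toxin entry, tracked through the 460 nm emission signal; the cell line is not named here. Each compound was tested as a concentration series from about 0.0005 to 40 µM. The number is the fitted AC50 of the 460 nm signal alone; lower values mean a more potent effect. A falling signal goes with compounds filed as inhibitors or cytotoxic, a rising one with activators or fluorescent compounds (inferred from the filed classes).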

Values are in nM. Common to all entries: measured here: 460 nm channel. Part of the compounds only, not a random draw; the main read-out is not listed here. Potencies fitted to partial, single-point or poorly fitting curves are rough. The first word of each remark tells which way the curve ran; it can be opposite to the aim of the assay.

Result for CCN1C(=O)/C(=C/N2CCc3ccccc32)SC1=S was AC50 125.9 nM (falling, full curve). For CCNc1ncc2nc(-c3cccc(C#N)c3)c(=O)n(C)c2n1 the result was AC50 10000 nM (rising, partial curve). For C/C(=C\c1ccc(C(=O)O)cc1)c1ccc2c(c1)C(C)(C)CCC2(C)C the result was AC50 31622 nM (falling, single point). With O=C1c2ccccc2C(=O)N1CC1=CCS(=O)(=O)C1 the assay gave AC50 5012 nM (rising, single point). COc1ccc(-c2nc3ccccc3o2)cc1NC(=O)c1ccc(Br)o1 read AC50 1585 nM (falling, full curve, poor fit). Brc1ccc(Oc2cc(Br)c(Br)cc2Br)c(Br)c1 read AC50 10000 nM (falling, partial curve). O=C(c1ccco1)N1CCN(c2c(-c3ccccc3)c3cc(Cl)ccc3[nH]c2=O)CC1 read AC50 12589 nM (falling, single point).

With Cc1ccc2c(c1)c1c3n2CC(=C2C(=O)OC(C)(C)OC2=O)NC3CCC1 (stereo not shown) the assay gave AC50 25.12 nM (falling, full curve, poor fit). Nc1nc(C(=O)N2CCOCC2)nn1S(=O)(=O)c1ccccc1 read AC50 19952 nM (rising, single point). COc1ccc(NC(=O)Nc2cccc3cccnc23)cc1 gave AC50 12589 nM (falling, partial curve). With Cc1ccc(C)c(SCC(=O)Nc2nnc(-c3ccccc3)o2)c1 the assay gave AC50 19952 nM (falling, single point). For CC1Cc2ccccc2N1C(=O)CSc1nnc(NC(=O)Cc2cccs2)s1 (stereo not shown) the result was AC50 31622 nM (rising, single point). For COC(=O)[C@@]1(Cc2ccc(F)cc2)[C@H]2c3cc(C(=O)N4CCCC4)n(CCN4CNCC4=O)c3C[C@H]2CN1C(=O)c1ccccc1 the result was AC50 10000 nM (rising, partial curve). C[C@@H](CCc1ccc(O)cc1)NCCc1ccc(O)c(O)c1 read AC50 31622 nM (falling, partial curve).

Result for CCCn1c(SCc2cc(=O)oc3ccc4ccccc4c23)n[nH]c1=O was AC50 12589 nM (rising, single point). S=c1nc(C2CC2)[nH]c2ccccc12 read AC50 2512 nM (falling, full curve, poor fit). Result for CC(CP(=O)(O)O)NC(=O)Cc1ccccc1 (stereo not shown) was AC50 7.943 nM (falling, full curve). N#Cc1cc(-c2ccccc2)nn1-c1ccccc1 read AC50 3162 nM (falling, full curve, poor fit). Result for Cl/C(=C\n1cncn1)c1ccc(Cl)cc1Cl was AC50 31622 nM (falling, partial curve). CC1=C(C(=O)OC2CCCC2)C(c2ccc(C)o2)C2=C(CC(c3cccs3)CC2=O)N1 (stereo not shown) read AC50 31622 nM (falling, single point). COC(=O)c1ccccc1NC(=O)C1CCCN(c2nnc(-n3cccc3)s2)C1 (stereo not shown) gave AC50 15848 nM (falling, single point).

CC(C)=CCCC(C)NC(=O)NC1CCCCC1 (stereo not shown) gave AC50 1585 nM (rising, partial curve). CCOCCCn1c(C)nc2c(c1=O)c1nc3ccccc3nc1n2-c1ccc(C)cc1 gave AC50 31622 nM (falling, single point). With CC1CN(c2oc(Cc3cccc4ccccc34)nc2C#N)CC(C)O1 (stereo not shown) the assay gave AC50 10 nM (falling, full curve). COC(=O)N1CCN(C(=O)Cc2ccc(Cl)c(Cl)c2)[C@H](CN2CCCC2)C1 read AC50 31622 nM (rising, single point). CC1(C)Cc2ccccc2-c2nnc(SCc3ccc(C#N)cc3)n21 read AC50 5012 nM (rising, single point). Result for CC(C)[C@@H]1[C@H]2CC[C@H](C2)[C@H]1N was AC50 6.31 nM (rising, full curve, poor fit). COc1ccccc1NC(=O)N(Cc1ccco1)Cc1cc2cccc(C)c2[nH]c1=O gave AC50 1585 nM (falling, partial curve).

Cc1nc(-c2ccc(C(=O)O)cc2)cs1 gave AC50 3981 nM (rising, partial curve). CCOc1ccc(C(=O)NCc2cccnc2)cc1 gave AC50 25.12 nM (falling, full curve). O=C(Nc1ccc(N2CCN(Cc3ccccc3)CC2)cc1)c1cccnc1 gave AC50 25118 nM (rising, single point). With O=C(Nc1nc(-c2cccs2)cs1)c1cccc(S(=O)(=O)N2CCCCCC2)c1 the assay gave AC50 6310 nM (falling, partial curve). Result for N#CCCn1c(=O)c(-c2ccc(F)cc2)nc2cnc(N3CCOCC3)nc21 was AC50 5012 nM (rising, partial curve). Result for Cc1ccccc1OC(C)c1nc(-c2ccccc2)no1 (stereo not shown) was AC50 3.162 nM (falling, full curve, poor fit). Result for CC(=O)N1CCN(c2ccc(NC(=O)c3ccc(C(C)(C)C)cc3)cc2)CC1 was AC50 15848 nM (falling, single point).

4 of the entries, repeated:

- CCCn1c(SCc2cc(=O)oc3ccc4ccccc4c23)n[nH]c1=O | AC50 12589 nM (rising, single point)
- Cc1ccc(C)c(SCC(=O)Nc2nnc(-c3ccccc3)o2)c1 | AC50 19952 nM (falling, single point)
- Brc1ccc(Oc2cc(Br)c(Br)cc2Br)c(Br)c1 | AC50 10000 nM (falling, partial curve)
- COc1ccc(NC(=O)Nc2cccc3cccnc23)cc1 | AC50 12589 nM (falling, partial curve)

Data taken from PubChem BioAssay AID912, deposited by NCATS (2007).